Experimental data from publication PMC8063330 (Oncology Letters, 2021).

What was measured:
Format in all cases: cell-based
SNU-638 cells = assay: cytotoxic assay in SNU-638
[1] = test system: gastric cancer cell lines; assay: cytotoxic assay with various gastric cancer cell lines
MKN-45 cells = assay: cytotoxic assay in MKN-45

CCNC(=O)C[C@@H]1N=C(c2ccc(Cl)cc2)c2cc(OC)ccc2-n2c(C)nnc21 [I-BET-762]
cytotoxic effect (SNU-638 cells): had cytotoxic effect
cell growth inhibition in I-BET-762-resistant cell lines ([1]; MKN45, SH-10-TC, SNU668, MKN7 and SNU216): resistant
cytotoxic effect on gastric cancer cell lines ([1]; various gastric cancer cell lines, 72 h, WST-1): exerts inhibition only on limited cell lines
cytotoxic effect (MKN-45 cells): had no cytotoxic effect
